Patent US20100173834A1 (priority 2007, published 2010)
Bridges are numbered along the chain shown (N, C = ends). [ ]: non-standard residue; d: D form.

Tests used:
[1] = general procedure: Fmoc solid-phase peptide synthesis; Rink Amide MBHA resin (Novabiochem), 0.74 mmol/g; Wang resin if R1 is -OH; HBTU/HOBT/DIPEA; settings: whole synthesis, HPLC, scale of the general procedure 1.0 mmole
[2] = general procedure: Fmoc solid-phase peptide synthesis; Rink Amide MBHA; HBTU/HOBT/DIPEA; settings: whole synthesis

Substance	final purity (method not given) [1] [%]	also measured
Ac-WRC[dA]H[dF]RWC-NH2 (disulfide 3-9)	98.8	
Ac-2-Nal-Arg-c(Cys-D-Ala-His-D-Phe-Arg-Trp-Cys)-NH2		final HPLC purity ([2]; HPLC, scale 0.16 mmole): 99.9%; isolated mass ([2]; scale 0.16 mmole): Approximately 62 mg; isolated yield ([2]; scale 0.16 mmole): 29%
H-HRC[dA]H[dF]RWC-NH2 (disulfide 3-9)		final purity (method not given) ([2]; HPLC, scale 0.5 mmole): 99.9%; isolated mass ([2]; scale 0.5 mmole): 227 mg; isolated yield ([2]; scale 0.5 mmole): 37%
Ac-Tyr-Arg-c(Cys-D-Ala-His-D-Phe-Arg-Trp-Cys)-NH2	98.0	
Ac-FRC[dA]H[dF]RWC-NH2 (disulfide 3-9)	98.9	
Ac-1-Nal-Arg-c(Cys-D-Ala-His-D-Phe-Arg-Trp-Cys)-NH2	99.9	
Ac-HRC[dA]H[dF]RWC-NH2 (disulfide 3-9)	99.9	
Ac-Pff-Arg-c(Cys-D-Ala-His-D-Phe-Arg-Trp-Cys)-NH2	99.9	
